Consider one substance from patent US9073975B2 (SANOFI, priority 2010, dated 2015).

Strings that start with PEPTIDE1 are HELM notation: dots part the residues, brackets hold end groups and non-standard residues.

This data set in a line: general procedure: Fmoc solid-phase peptide synthesis; 2-Chlorotrityl chloride resin; DIC/HOBt (chain assembly); HATU/DIEA (cyclisation in solution). Conditions: cyclisation step.

Take “PEPTIDE1{L.H.N.L.[AcLys-eps].T.E.R.M.A}$PEPTIDE1,PEPTIDE1,1:R1-10:R2$$$V2.0”: the cyclisation yield came out at 3%.
